Our source for the binding values is paper PMC10806146.

Amino acid sequences for entries named in this document (tags omitted). A change or cut given only in a name is not applied to a line headed by its entry.
UniProt Q9Y616: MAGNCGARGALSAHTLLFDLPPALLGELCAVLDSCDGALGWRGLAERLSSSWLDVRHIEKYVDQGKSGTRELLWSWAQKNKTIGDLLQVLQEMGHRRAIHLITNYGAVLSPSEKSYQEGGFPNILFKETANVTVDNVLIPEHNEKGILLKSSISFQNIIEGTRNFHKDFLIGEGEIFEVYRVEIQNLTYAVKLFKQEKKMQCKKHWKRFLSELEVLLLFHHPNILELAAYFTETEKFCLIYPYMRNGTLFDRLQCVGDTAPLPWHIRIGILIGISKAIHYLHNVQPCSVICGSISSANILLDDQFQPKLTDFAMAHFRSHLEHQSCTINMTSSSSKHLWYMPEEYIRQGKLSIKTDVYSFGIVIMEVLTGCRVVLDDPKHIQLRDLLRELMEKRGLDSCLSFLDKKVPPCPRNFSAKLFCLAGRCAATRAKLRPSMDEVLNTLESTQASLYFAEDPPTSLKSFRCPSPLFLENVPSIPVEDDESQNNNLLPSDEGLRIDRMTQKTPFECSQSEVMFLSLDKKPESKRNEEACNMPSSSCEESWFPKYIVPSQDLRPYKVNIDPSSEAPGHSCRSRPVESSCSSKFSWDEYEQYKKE
UniProt Q99836: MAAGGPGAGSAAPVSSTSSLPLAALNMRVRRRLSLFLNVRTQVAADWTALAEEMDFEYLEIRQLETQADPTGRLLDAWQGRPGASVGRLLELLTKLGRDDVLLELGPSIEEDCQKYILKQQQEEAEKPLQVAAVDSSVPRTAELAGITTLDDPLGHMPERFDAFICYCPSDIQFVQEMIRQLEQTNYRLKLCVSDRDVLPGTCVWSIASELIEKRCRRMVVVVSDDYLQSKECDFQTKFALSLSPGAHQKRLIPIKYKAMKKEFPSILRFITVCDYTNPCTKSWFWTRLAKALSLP

No constants are given. Whether binding was seen depends on the method and setting. Binding seen in cells or lysates may run through a third protein. A result given as binding can be weak or reduced; the word gives no strength.

In this test the target is IRAK-M mutated at Pro22/Ala23 (human) (UniProt Q9Y616). Nature of the test: co-IP; IRAK-M WT or mutant co-expressed with IRAK-4-FLAG and MyD88-HA in 293T cells; IP with anti-IRAK-M 1F6 and protein A/G agarose; blots with anti-FLAG, anti-HA and anti-IRAK-M 4369.

With MyD88-HA (from UniProt Q99836 1-296), the binding result is recorded as “binds”.
